Source: PMC11589140

Sequences of proteins named here, by UniProt entry; tags and fusion partners are left off.
UniProt O14744: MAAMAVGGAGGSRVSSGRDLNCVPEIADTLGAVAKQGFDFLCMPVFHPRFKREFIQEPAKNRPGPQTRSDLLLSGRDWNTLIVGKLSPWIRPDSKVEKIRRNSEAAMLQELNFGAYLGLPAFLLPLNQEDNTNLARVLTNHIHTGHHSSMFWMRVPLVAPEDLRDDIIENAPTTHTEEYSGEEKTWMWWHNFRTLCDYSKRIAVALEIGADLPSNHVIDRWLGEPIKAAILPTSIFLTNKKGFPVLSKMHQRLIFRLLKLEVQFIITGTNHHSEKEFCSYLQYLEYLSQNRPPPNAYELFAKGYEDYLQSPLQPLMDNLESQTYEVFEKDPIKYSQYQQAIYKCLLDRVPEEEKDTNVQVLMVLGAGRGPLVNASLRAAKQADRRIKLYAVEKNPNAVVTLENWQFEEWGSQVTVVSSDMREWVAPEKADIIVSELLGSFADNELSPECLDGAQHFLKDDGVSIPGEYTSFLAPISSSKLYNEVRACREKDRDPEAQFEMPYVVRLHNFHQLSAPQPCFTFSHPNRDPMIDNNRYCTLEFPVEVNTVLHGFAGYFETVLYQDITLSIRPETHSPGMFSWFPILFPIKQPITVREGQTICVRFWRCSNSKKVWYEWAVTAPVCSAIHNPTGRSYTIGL

Legend:
[1] = biological target: T1, HA-tagged RUNX1T1 E146K (human) (UniProt Q06455); test: affinity purification with mass spectrometry; fifty million HEK-293T cells expressing HA-RUNX1T1 (WT or mutants) lysed, anti-HA affinity resin, elution with 0.1 M glycine-HCl pH 2.0, trypsin digestion, nanoLC-MS/MS
T1 sequence: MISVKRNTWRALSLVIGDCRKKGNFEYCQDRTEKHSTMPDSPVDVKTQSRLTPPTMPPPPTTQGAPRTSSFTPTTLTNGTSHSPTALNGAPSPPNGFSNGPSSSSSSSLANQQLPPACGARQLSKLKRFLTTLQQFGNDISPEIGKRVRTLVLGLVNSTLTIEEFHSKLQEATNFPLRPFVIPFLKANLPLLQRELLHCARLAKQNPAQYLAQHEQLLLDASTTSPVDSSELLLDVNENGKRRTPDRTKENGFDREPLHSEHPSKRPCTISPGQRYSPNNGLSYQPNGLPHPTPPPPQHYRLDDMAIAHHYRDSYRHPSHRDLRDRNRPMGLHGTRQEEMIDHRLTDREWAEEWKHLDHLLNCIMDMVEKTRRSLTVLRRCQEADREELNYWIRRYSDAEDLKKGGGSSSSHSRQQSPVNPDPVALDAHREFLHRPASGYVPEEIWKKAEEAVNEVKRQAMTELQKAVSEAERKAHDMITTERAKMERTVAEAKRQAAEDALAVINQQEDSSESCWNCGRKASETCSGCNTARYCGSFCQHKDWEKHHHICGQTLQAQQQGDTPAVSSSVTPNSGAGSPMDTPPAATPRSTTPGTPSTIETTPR

[2] = biological target: T2, HA-tagged RUNX1T1 E163K (human) (UniProt Q06455); test: as above
T2 sequence: T1 sequence with K146E, E163K

In the case of “arginine methyltransferase PRMT5 (from UniProt O14744 1-637)”, the binding [1] is reported as “binds” and the binding [2] is reported as “binds”.

Where a chain is given by its changes, count along the chain named. These are yes or no findings as the source states them, for the method shown. Binding seen in cells or lysates may run through a third protein. Here binding means that the protein was enriched with, or labelled near, the bait; the list need not be complete. Sequences can lack the tags named with a protein.
